Data: PMC11893173
No constants are given. Whether binding was seen depends on the method and setting. Binding seen in cells or lysates may run through a third protein. A yes stands for co-enrichment or nearness to the bait. Other partners may have been found. Where a sequence is shown, tags or fusion partners need not be part of it.

Amino acid sequences for entries named in this document (tags omitted).
UniProt P26641: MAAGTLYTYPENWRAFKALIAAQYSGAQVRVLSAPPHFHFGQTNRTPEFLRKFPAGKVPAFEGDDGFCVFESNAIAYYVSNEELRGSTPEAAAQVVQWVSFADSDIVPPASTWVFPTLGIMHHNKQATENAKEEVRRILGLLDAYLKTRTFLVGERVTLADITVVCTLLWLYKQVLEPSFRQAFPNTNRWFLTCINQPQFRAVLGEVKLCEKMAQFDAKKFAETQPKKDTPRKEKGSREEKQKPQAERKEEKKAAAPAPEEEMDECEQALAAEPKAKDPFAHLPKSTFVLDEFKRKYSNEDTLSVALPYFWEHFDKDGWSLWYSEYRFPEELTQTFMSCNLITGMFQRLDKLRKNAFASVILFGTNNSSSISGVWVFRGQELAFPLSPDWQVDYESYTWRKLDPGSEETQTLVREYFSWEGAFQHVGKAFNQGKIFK
UniProt P67809: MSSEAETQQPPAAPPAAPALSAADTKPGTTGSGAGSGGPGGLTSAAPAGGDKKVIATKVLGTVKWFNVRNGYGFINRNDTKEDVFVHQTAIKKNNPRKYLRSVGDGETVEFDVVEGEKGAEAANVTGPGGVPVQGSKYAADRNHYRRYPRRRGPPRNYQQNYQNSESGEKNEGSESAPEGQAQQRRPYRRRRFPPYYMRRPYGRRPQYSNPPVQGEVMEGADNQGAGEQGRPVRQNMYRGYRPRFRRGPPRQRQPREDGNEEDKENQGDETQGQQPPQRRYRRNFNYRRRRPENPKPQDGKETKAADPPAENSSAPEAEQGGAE

B1: ATP5J, a subunit of the mitochondrial ATP synthase (protein, UniProt P18859 33-108)
chain: NKELDPIQKLFVDKIREYKSKRQTSGGPVDASSEYQQELERELFKLKQMFGNADMNTFPTFKFEDPKFEVIEKPQA
B2: SERPINH1 (protein, UniProt P50454 19-418)
chain: AEVKKPAAAAAPGTAEKLSPKAATLAERSAGLAFSLYQAMAKDQAVENILVSPVVVASSLGLVSLGGKATTASQAKAVLSAEQLRDEEVHAGLGELLRSLSNSTARNVTWKLGSRLYGPSSVSFADDFVRSSKQHYNCEHSKINFRDKRSALQSINEWAAQTTDGKLPEVTKDVERTDGALLVNAMFFKPHWDEKFHHKMVDNRGFMVTRSYTVGVMMMHRTGLYNYYDDEKEKLQIVEMPLAHKLSSLIILMPHHVEPLERLEKLLTKEQLKIWMGKMQKKAVAISLPKGVVEVTHDLQKHLAGLGLTEAIDKNKADLSRMSGKKDLYLASVFHATAFELDTDGNPFDQDIYGREELRSPKLFYADHPFIFLVRDTQSGSLLFIGRLVRPKGDKMRDEL
B3: ATPIF1 (protein, UniProt Q9UII2 26-106)
chain: GSDQSENVDRGAGSIREAGGAFGKREQAEEERYFRAQSREQLAALKKHHEEEIVHHKKEIERLQKEIERHKQKIKMLKHDD
B4: SLC25A6 (protein, UniProt P12236 1-298)
chain: MTEQAISFAKDFLAGGIAAAISKTAVAPIERVKLLLQVQHASKQIAADKQYKGIVDCIVRIPKEQGVLSFWRGNLANVIRYFPTQALNFAFKDKYKQIFLGGVDKHTQFWRYFAGNLASGGAAGATSLCFVYPLDFARTRLAADVGKSGTEREFRGLGDCLVKITKSDGIRGLYQGFSVSVQGIIIYRAAYFGVYDTAKGMLPDPKNTHIVVSWMIAQTVTAVAGVVSYPFDTVRRRMMMQSGRKGADIMYTGTVDCWRKIFRDEGGKAFFKGAWSNVLRGMGGAFVLVLYDELKKVI
B5: GBA (protein, UniProt P04062 40-536)
chain: ARPCIPKSFGYSSVVCVCNATYCDSFDPPTFPALGTFSRYESTRSGRRMELSMGPIQANHTGTGLLLTLQPEQKFQKVKGFGGAMTDAAALNILALSPPAQNLLLKSYFSEEGIGYNIIRVPMASCDFSIRTYTYADTPDDFQLHNFSLPEEDTKLKIPLIHRALQLAQRPVSLLASPWTSPTWLKTNGAVNGKGSLKGQPGDIYHQTWARYFVKFLDAYAEHKLQFWAVTAENEPSAGLLSGYPFQCLGFTPEHQRDFIARDLGPTLANSTHHNVRLLMLDDQRLLLPHWAKVVLTDPEAAKYVHGIAVHWYLDFLAPAKATLGETHRLFPNTMLFASEACVGSKFWEQSVRLGSWDRGMQYSHSIITNLLYHVVGWTDWNLALNPEGGPNWVRNFVDSPIIVDITKDTFYKQPMFYHLGHFSKFIPEGSQRVGLVASQKNDLDAVALMHPDGSAVVVVLNRSSKDVPLTIKDPAVGFLETISPGYSIHTYLWRRQ

target: T1, SNX10-EGFP WT (sorting nexin 10, EGFP-tagged) (human) (UniProt Q9Y5X0); assay: affinity purification with mass spectrometry; GFP-Trap (ChromoTek) pull-down from lysates of U2OS cells stably expressing SNX10-EGFP, SNX10(Y32S)-EGFP or EGFP (control); NP-40 lysis buffer (50 mM HEPES pH 7.4, 150 mM NaCl, 1 mM EDTA, 10% glycerol, 0.5% NP-40); on-bead trypsin digest, LC-MS/MS, biological triplicates; hits by limma, log2FC >1 and adjusted P <0.05 against EGFP
T1 sequence: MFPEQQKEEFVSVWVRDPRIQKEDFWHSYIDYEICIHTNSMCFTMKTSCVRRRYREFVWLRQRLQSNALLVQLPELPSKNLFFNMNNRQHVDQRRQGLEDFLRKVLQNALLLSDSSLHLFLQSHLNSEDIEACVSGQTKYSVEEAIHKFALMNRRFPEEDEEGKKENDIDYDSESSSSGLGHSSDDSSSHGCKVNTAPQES

binding, binds:
EEF1G (from UniProt P26641 1-437)
MVB12A (from UniProt Q96EY5 1-273)
UQCRFS1 (human (endogenous in U2OS))
YBX1 (from UniProt P67809 1-324)
B1
B2
B3
B4
B5
